# Results published in patent publication US20080095742A1.
# Protein sequences, listed by entry. Tags and fused reporters are not part of them. Lines headed by an entry give the natural chain unless they say otherwise; changes in a name come on top. Residues count along the entry.
# UniProt P06935, residues 1-123: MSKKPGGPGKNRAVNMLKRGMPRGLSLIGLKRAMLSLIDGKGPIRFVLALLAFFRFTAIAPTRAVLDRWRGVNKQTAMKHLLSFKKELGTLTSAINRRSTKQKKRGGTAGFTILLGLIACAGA
# UniProt O35864: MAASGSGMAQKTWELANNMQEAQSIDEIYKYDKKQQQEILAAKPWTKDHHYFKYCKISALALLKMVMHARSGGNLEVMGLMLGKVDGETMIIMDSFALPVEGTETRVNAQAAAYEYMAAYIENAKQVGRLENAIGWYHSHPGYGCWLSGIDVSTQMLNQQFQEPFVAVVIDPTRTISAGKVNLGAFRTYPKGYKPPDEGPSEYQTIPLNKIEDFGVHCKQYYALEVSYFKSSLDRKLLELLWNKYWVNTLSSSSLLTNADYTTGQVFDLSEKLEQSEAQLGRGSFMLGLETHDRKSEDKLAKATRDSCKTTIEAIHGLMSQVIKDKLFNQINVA
# No constants are given. Whether binding was seen depends on the method and setting. Binding seen in cells or lysates may run through a third protein. Some binding calls cover weakened binding; strength is not graded here.
# How the values were obtained:
# [1] = target: HA-tagged WNV-Cp (pcDNA3-HA/WNV-Cp) (West Nile virus) (UniProt P06935); assay: co-immunoprecipitation from cotransfected 293T cells (legend of FIG. 7)
# [2] = target: HA-tagged WNV-Cp (pcDNA3-HA/WNV-Cp) (West Nile virus) (UniProt P06935); assay: co-immunoprecipitation from cotransfected 293T cells: IP with anti-HA, blot with anti-Flag
substance,measurement,setting,value
Flag-tagged Jab1 (pCMV Tag2B-Jab1) (from UniProt O35864 1-334),binding,[1],binds
same,binding,[2],binds
